Measured values from publication PMC12989817.
No constants are given. Whether binding was seen depends on the method and setting. Binding seen in cells or lysates may run through a third protein. A yes stands for co-enrichment or nearness to the bait. Other partners may have been found.

The chains behind the UniProt entries cited, without tags or fusion partners. Residues count along the entry.
UniProt P22001, residues 53-575: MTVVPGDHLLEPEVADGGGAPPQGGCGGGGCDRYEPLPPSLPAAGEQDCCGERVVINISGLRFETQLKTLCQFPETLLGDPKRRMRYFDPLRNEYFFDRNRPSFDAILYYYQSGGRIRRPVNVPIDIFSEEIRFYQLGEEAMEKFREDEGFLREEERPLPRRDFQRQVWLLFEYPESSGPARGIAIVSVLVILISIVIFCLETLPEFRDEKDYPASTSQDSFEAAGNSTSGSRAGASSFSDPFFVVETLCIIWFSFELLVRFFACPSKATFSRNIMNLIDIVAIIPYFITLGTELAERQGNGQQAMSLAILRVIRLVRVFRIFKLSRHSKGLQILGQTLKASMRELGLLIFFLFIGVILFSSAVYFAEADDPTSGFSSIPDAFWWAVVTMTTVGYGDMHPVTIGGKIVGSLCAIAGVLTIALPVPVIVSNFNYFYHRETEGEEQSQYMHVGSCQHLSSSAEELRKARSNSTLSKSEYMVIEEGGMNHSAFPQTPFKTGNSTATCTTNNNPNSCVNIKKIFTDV

B1: TSC1 (protein, UniProt Q92574 1-1164)
chain: MAQQANVGELLAMLDSPMLGVRDDVTAVFKENLNSDRGPMLVNTLVDYYLETSSQPALHILTTLQEPHDKHLLDRINEYVGKAATRLSILSLLGHVIRLQPSWKHKLSQAPLLPSLLKCLKMDTDVVVLTTGVLVLITMLPMIPQSGKQHLLDFFDIFGRLSSWCLKKPGHVAEVYLVHLHASVYALFHRLYGMYPCNFVSFLRSHYSMKENLETFEEVVKPMMEHVRIHPELVTGSKDHELDPRRWKRLETHDVVIECAKISLDPTEASYEDGYSVSHQISARFPHRSADVTTSPYADTQNSYGCATSTPYSTSRLMLLNMPGQLPQTLSSPSTRLITEPPQATLWSPSMVCGMTTPPTSPGNVPPDLSHPYSKVFGTTAGGKGTPLGTPATSPPPAPLCHSDDYVHISLPQATVTPPRKEERMDSARPCLHRQHHLLNDRGSEEPPGSKGSVTLSDLPGFLGDLASEEDSIEKDKEEAAISRELSEITTAEAEPVVPRGGFDSPFYRDSLPGSQRKTHSAASSSQGASVNPEPLHSSLDKLGPDTPKQAFTPIDLPCGSADESPAGDRECQTSLETSIFTPSPCKIPPPTRVGFGSGQPPPYDHLFEVALPKTAHHFVIRKTEELLKKAKGNTEEDGVPSTSPMEVLDRLIQQGADAHSKELNKLPLPSKSVDWTHFGGSPPSDEIRTLRDQLLLLHNQLLYERFKRQQHALRNRRLLRKVIKAAALEEHNAAMKDQLKLQEKDIQMWKVSLQKEQARYNQLQEQRDTMVTKLHSQIRQLQHDREEFYNQSQELQTKLEDCRNMIAELRIELKKANNKVCHTELLLSQVSQKLSNSESVQQQMEFLNRQLLVLGEVNELYLEQLQNKHSDTTKEVEMMKAAYRKELEKNRSHVLQQTQRLDTSQKRILELESHLAKKDHLLLEQKKYLEDVKLQARGQLQAAESRYEAQKRITQVFELEILDLYGRLEKDGLLKKLEEEKAEAAEAAEERLDCCNDGCSDSMVGHNEEASGHNGETKTPRPSSARGSSGSRGGGGSSSSSSELSTPEKPPHQRAGPFSSRWETTMGEASASIPTTVGSLPSSKSFLGMKARELFRNKSESQCDEDGMTSSLSESLKTELGKDLGVEAKIPLNLDGPHPSPPTPDSVGQLHIMDYNETHHEHS
B2: LZTS1 (protein, UniProt Q9Y250 1-596)
chain: MGSVSSLISGHSFHSKHCRASQYKLRKSSHLKKLNRYSDGLLRFGFSQDSGHGKSSSKMGKSEDFFYIKVSQKARGSHHPDYTALSSGDLGGQAGVDFDPSTPPKLMPFSNQLEMGSEKGAVRPTAFKPVLPRSGAILHSSPESASHQLHPAPPDKPKEQELKPGLCSGALSDSGRNSMSSLPTHSTSSSYQLDPLVTPVGPTSRFGGSAHNITQGIVLQDSNMMSLKALSFSDGGSKLGHSNKADKGPSCVRSPISTDECSIQELEQKLLEREGALQKLQRSFEEKELASSLAYEERPRRCRDELEGPEPKGGNKLKQASQKSQRAQQVLHLQVLQLQQEKRQLRQELESLMKEQDLLETKLRSYEREKTSFGPALEETQWEVCQKSGEISLLKQQLKESQTEVNAKASEILGLKAQLKDTRGKLEGLELRTQDLEGALRTKGLELEVCENELQRKKNEAELLREKVNLLEQELQELRAQAALARDMGPPTFPEDVPALQRELERLRAELREERQGHDQMSSGFQHERLVWKEEKEKVIQYQKQLQQSYVAMYQRNQRLEKALQQLARGDSAGEPLEVDLEGADIPYEDIIATEI
B3: SIRT2 (protein, UniProt Q8IXJ6 1-389)
chain: MAEPDPSHPLETQAGKVQEAQDSDSDSEGGAAGGEADMDFLRNLFSQTLSLGSQKERLLDELTLEGVARYMQSERCRRVICLVGAGISTSAGIPDFRSPSTGLYDNLEKYHLPYPEAIFEISYFKKHPEPFFALAKELYPGQFKPTICHYFMRLLKDKGLLLRCYTQNIDTLERIAGLEQEDLVEAHGTFYTSHCVSASCRHEYPLSWMKEKIFSEVTPKCEDCQSLVKPDIVFFGESLPARFFSCMQSDFLKVDLLLVMGTSLQVQPFASLISKAPLSTPRLLINKEKAGQSDPFLGMIMGLGGGMDFDSKKAYRDVAWLGECDQGCLALAELLGWKKELEDLVRREHASIDAQSGAGVPNPSTSASPKKSPPPAKDEARTTEREKPQ
B4: PLEKHA7 (protein, UniProt Q6IQ23 1-1121)
chain: MAAATVGRDTLPEHWSYGVCRDGRVFFINDQLRCTTWLHPRTGEPVNSGHMIRSDLPRGWEEGFTEEGASYFIDHNQQTTAFRHPVTGQFSPENSEFILQEEPNPHMSKQDRNQRPSSMVSETSTAGTASTLEAKPGPKIIKSSSKVHSFGKRDQAIRRNPNVPVVVRGWLHKQDSSGMRLWKRRWFVLADYCLFYYKDSREEAVLGSIPLPSYVISPVAPEDRISRKYSFKAVHTGMRALIYNSSTAGSQAEQSGMRTYYFSADTQEDMNAWVRAMNQAAQVLSRSSLKRDMEKVERQAVPQANHTESCHECGRVGPGHTRDCPHRGHDDIVNFERQEQEGEQYRSQRDPLEGKRDRSKARSPYSPAEEDALFMDLPTGPRGQQAQPQRAEKNGMLPASYGPGEQNGTGGYQRAFPPRTNPEKHSQRKSNLAQVEHWARAQKGDSRSLPLDQTLPRQGPGQSLSFPENYQTLPKSTRHPSGGSSPPPRNLPSDYKYAQDRASHLKMSSEERRAHRDGTVWQLYEWQQRQQFRHGSPTAPICLGSPEFTDQGRSRSMLEVPRSISVPPSPSDIPPPGPPRVFPPRRPHTPAERVTVKPPDQRRSVDISLGDSPRRARGHAVKNSSHVDRRSMPSMGYMTHTVSAPSLHGKSADDTYLQLKKDLEYLDLKMTGRDLLKDRSLKPVKIAESDTDVKLSIFCEQDRVLQDLEDKIRALKENKDQLESVLEVLHRQMEQYRDQPQHLEKIAYQQKLLQEDLVHIRAELSRESTEMENAWNEYLKLENDVEQLKQTLQEQHRRAFFFQEKSQIQKDLWRIEDVTAGLSANKENFRILVESVKNPERKTVPLFPHPPVPSLSTSESKPPPQPSPPTSPVRTPLEVRLFPQLQTYVPYRPHPPQLRKVTSPLQSPTKAKPKVEDEAPPRPPLPELYSPEDQPPAVPPLPREATIIRHTSVRGLKRQSDERKRDRELGQCVNGDSRVELRSYVSEPELATLSGDMAQPSLGLVGPESRYQTLPGRGLSGSTSRLQQSSTIAPYVTLRRGLNAESSKATFPRPKSALERLYSGDHQRGKMSAEEQLERMKRHQKALVRERKRTLGQGERTGLPSSRYLSRPLPGDLGSVC
B5: NUMB (protein, UniProt P49757 1-651)
chain: MNKLRQSFRRKKDVYVPEASRPHQWQTDEEGVRTGKCSFPVKYLGHVEVDESRGMHICEDAVKRLKAERKFFKGFFGKTGKKAVKAVLWVSADGLRVVDEKTKDLIVDQTIEKVSFCAPDRNFDRAFSYICRDGTTRRWICHCFMAVKDTGERLSHAVGCAFAACLERKQKREKECGVTATFDASRTTFTREGSFRVTTATEQAEREEIMKQMQDAKKAETDKIVVGSSVAPGNTAPSPSSPTSPTSDATTSLEMNNPHAIPRRHAPIEQLARQGSFRGFPALSQKMSPFKRQLSLRINELPSTMQRKTDFPIKNAVPEVEGEAESISSLCSQITNAFSTPEDPFSSAPMTKPVTVVAPQSPTFQANGTDSAFHVLAKPAHTALAPVAMPVRETNPWAHAPDAANKEIAATCSGTEWGQSSGAASPGLFQAGHRRTPSEADRWLEEVSKSVRAQQPQASAAPLQPVLQPPPPTAISQPASPFQGNAFLTSQPVPVGVVPALQPAFVPAQSYPVANGMPYPAPNVPVVGITPSQMVANVFGTAGHPQAAHPHQSPSLVRQQTFPHYEASSATTSPFFKPPAQHLNGSAAFNGVDDGRLASADRHTEVPTGTCPVDPFEAQWAALENKSKQRTNPSPTNPFSSDLQKTFEIEL
B6: NUMBL (protein, UniProt Q9Y6R0 1-609)
chain: MSRSAAASGGPRRPERHLPPAPCGAPGPPETCRTEPDGAGTMNKLRQSLRRRKPAYVPEASRPHQWQADEDAVRKGTCSFPVRYLGHVEVEESRGMHVCEDAVKKLKAMGRKSVKSVLWVSADGLRVVDDKTKDLLVDQTIEKVSFCAPDRNLDKAFSYICRDGTTRRWICHCFLALKDSGERLSHAVGCAFAACLERKQRREKECGVTAAFDASRTSFAREGSFRLSGGGRPAEREAPDKKKAEAAAAPTVAPGPAQPGHVSPTPATTSPGEKGEAGTPVAAGTTAAAIPRRHAPLEQLVRQGSFRGFPALSQKNSPFKRQLSLRLNELPSTLQRRTDFQVKGTVPEMEPPGAGDSDSINALCTQISSSFASAGAPAPGPPPATTGTSAWGEPSVPPAAAFQPGHKRTPSEAERWLEEVSQVAKAQQQQQQQQQQQQQQQQQQQQAASVAPVPTMPPALQPFPAPVGPFDAAPAQVAVFLPPPHMQPPFVPAYPGLGYPPMPRVPVVGITPSQMVANAFCSAAQLQPQPATLLGKAGAFPPPAIPSAPGSQARPRPNGAPWPPEPAPAPAPELDPFEAQWAALEGKATVEKPSNPFSGDLQKTFEIEL
B7: FGD6 (protein, UniProt Q6ZV73 1-1430)
chain: MTSAAEIKKPPVAPKPKFVVANNKPAPPPIAPKPDIVISSVPQSTKKMKPAIAPKPKVLKTSPVREIGQSPSRKIMLNLEGHKQELAESTDNFNCKYEGNQSNDYISPMCSCSSECIHKLGHRENLCVKQLVLEPLEMNENLENSKIDETLTIKTRSKCDLYGEKAKNQGGVVLKASVLEEELKDALIHQMPPFISAQKHRPTDSPEMNGGCNSNGQFRIEFADLSPSPSSFEKVPDHHSCHLQLPSDECEHFETCQDDSEKSNNCFQSSELEALENGKRSTLISSDGVSKKSEVKDLGPLEIHLVPYTPKFPTPKPRKTRTARLLRQKCVDTPSESTEEPGNSDSSSSCLTENSLKINKISVLHQNVLCKQEQVDKMKLGNKSELNMESNSDAQDLVNSQKAMCNETTSFEKMAPSFDKDSNLSSDSTTVDGSSMSLAVDEGTGFIRCTVSMSLPKQLKLTCNEHLQSGRNLGVSAPQMQKESVIKEENSLRIVPKKPQRHSLPATGVLKKAASEELLEKSSYPSSEEKSSEKSLERNHLQHLCAQNRGVSSSFDMPKRASEKPVWKLPHPILPFSGNPEFLKSVTVSSNSEPSTALTKPRAKSLSAMDVEKCTKPCKDSTKKNSFKKLLSMKLSICFMKSDFQKFWSKSSQLGDTTTGHLSSGEQKGIESDWQGLLVGEEKRSKPIKAYSTENYSLESQKKRKKSRGQTSAANGLRAESLDDQMLSRESSSQAPYKSVTSLCAPEYENIRHYEEIPEYENLPFIMAIRKTQELEWQNSSSMEDADANVYEVEEPYEAPDGQLQLGPRHQHSSSGASQEEQNDLGLGDLPSDEEEIINSSDEDDVSSESSKGEPDPLEDKQDEDNGMKSKVHHIAKEIMSSEKVFVDVLKLLHIDFRDAVAHASRQLGKPVIEDRILNQILYYLPQLYELNRDLLKELEERMLHWTEQQRIADIFVKKGPYLKMYSTYIKEFDKNIALLDEQCKKNPGFAAVVREFEMSPRCANLALKHYLLKPVQRIPQYRLLLTDYLKNLIEDAGDYRDTQDALAVVIEVANHANDTMKQGDNFQKLMQIQYSLNGHHEIVQPGRVFLKEGILMKLSRKVMQPRMFFLFNDALLYTTPVQSGMYKLNNMLSLAGMKVRKPTQEAYQNELKIESVERSFILSASSATERDEWLEAISRAIEEYAKKRITFCPSRSLDEADSENKEEVSPLGSKAPIWIPDTRATMCMICTSEFTLTWRRHHCRACGKIVCQACSSNKYGLDYLKNQPARVCEHCFQELQKLDHQHSPRIGSPGNHKSPSSALSSVLHSIPSGRKQKKIPAALKEVSANTEDSSMSGYLYRSKGNKKPWKHFWFVIKNKVLYTYAASEDVAALESQPLLGFTVIQVKDENSESKVFQLLHKNMLFYVFKAEDAHSAQKWIEAFQEGTIL

Molecular target: C-terminal Kv1.3-TurboID (Kv1.3-V5-TurboID fusion) (human) (UniProt P22001)
Assay: proximity labelling; TurboID fused to Kv1.3, stably expressed in Jurkat T-cells; 200 μM biotin for 1 h; lysis in 8 M urea; biotinylated proteins enriched on streptavidin magnetic beads; label-free quantitative MS against untransduced Jurkat T-cells or between lines (>4-fold, p<0.05; n=3)

Binder | binding
B1 | binds
B2 | binds
B3 | binds
B4 | binds
B5 | binds
B6 | binds
B7 | binds
